{
  "source": "patent US20210292315A1",
  "about": "“SELENIUM-CONTAINING ISOXAZOLAMINE COMPOUND, PREPARATION METHOD THEREFOR, AND USE THEREOF” (SHANGHAI XINGYE PHARMACEUTICAL TECHNOLOGY CO., LTD, priority 2018, published 2021)",
  "assay": "Glutathione peroxidase (GPx)-like activity assay, coupled NADPH oxidation at 340 nm",
  "format": "biochemical",
  "settings": "compound 50 μm, GSH 2.0 mM, pH 7.5, 25° C.",
  "method": "Method: GPX activity of selenium compounds was assayed by ultraviolet spectrophotometry. Glutathione (2.0 mM), EDTA (1 mM), glutathione disulfide reductase (1.7 units mL^−1), and nicotinamide adenine dinucleotide phosphate […] (NADPH; 0.4 mM) were mixed intopotassium phosphate buffer (0.1 M, pH=7.5). The selenium compounds (50 μm) was added to the above mixture At room temperature (25° C.), and the reaction was started by the addition of H2O2, tBuOOH or Cum-OOH (1.6 mM) respectively. The initial reduction rates were calculated from the rate of NADPH oxidation at 340 nm in a GSH assay. Each initial rate was measured at least three times and calculated from the first 5-10% of the reaction by using 6.22 mM^−1 cm^−1 as the molar extinction coefficient for NADPH. For the peroxidase activity, the rates were corrected for the background reaction between peroxide and thiol.",
  "note": "At least one structure is not confirmed: it was looked up by name or label, or the drawing left a doubt.",
  "data": [
    {"smiles": "O=c1c2ccccc2[se]n1-c1ccccc1", "note": "[Ebselen, reference compound]", "values": [
      {"measurement": "Initial rate v0, Cum-OOH", "setting": "peroxide Cum-OOH 1.6 mM", "result": "31.2 ± 0.5", "unit": "μm min^−1"},
      {"measurement": "Initial rate v0, H2O2", "setting": "peroxide H2O2 1.6 mM", "result": "76.7 ± 1.1", "unit": "μm min^−1"},
      {"measurement": "Initial rate v0, tBuOOH", "setting": "peroxide tBuOOH 1.6 mM", "result": "21.0 ± 4.3", "unit": "μm min^−1"}
    ]}
  ]
}
